# Reference: the supplement of paper PMC11732987, “Enantioselective OTUD7B fragment discovery through chemoproteomics screening and high-throughput optimisation” (Communications Chemistry, 2025)
# By UniProt entry, the sequences of proteins in these tests, tags left out. Where a name states a change or a piece, a line headed by the entry shows the natural chain unless it says otherwise. Residues count along the entry.
# UniProt O15091: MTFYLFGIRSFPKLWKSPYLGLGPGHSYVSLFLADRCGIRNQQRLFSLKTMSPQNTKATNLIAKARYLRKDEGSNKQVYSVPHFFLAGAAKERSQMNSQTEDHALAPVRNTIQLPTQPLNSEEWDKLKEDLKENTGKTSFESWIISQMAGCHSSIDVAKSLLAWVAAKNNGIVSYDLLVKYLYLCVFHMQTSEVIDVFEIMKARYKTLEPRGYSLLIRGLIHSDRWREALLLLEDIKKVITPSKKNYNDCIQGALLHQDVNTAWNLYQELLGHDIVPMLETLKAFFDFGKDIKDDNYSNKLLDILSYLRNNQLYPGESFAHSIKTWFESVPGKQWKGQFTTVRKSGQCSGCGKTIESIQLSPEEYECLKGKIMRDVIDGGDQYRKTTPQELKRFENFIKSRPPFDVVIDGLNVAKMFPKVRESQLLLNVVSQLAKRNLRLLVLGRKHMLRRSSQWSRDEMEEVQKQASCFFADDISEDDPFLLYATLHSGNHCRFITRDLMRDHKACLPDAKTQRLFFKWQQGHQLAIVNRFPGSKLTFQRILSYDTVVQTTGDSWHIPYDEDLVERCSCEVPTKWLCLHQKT
# UniProt O60831: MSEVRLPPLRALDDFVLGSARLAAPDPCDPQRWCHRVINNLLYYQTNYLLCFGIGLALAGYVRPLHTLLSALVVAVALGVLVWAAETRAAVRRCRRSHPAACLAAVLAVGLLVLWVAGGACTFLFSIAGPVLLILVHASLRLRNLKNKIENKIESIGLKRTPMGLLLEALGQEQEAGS
# UniProt Q8NAV1: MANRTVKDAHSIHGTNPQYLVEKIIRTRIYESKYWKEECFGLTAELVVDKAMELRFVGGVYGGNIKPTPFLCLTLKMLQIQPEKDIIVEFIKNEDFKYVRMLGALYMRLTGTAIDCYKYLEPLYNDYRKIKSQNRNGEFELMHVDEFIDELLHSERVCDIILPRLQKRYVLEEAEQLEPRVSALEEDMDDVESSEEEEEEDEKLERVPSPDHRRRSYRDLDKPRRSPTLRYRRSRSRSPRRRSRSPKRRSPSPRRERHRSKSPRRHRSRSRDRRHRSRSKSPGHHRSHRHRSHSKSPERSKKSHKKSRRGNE
# UniProt Q5THK1: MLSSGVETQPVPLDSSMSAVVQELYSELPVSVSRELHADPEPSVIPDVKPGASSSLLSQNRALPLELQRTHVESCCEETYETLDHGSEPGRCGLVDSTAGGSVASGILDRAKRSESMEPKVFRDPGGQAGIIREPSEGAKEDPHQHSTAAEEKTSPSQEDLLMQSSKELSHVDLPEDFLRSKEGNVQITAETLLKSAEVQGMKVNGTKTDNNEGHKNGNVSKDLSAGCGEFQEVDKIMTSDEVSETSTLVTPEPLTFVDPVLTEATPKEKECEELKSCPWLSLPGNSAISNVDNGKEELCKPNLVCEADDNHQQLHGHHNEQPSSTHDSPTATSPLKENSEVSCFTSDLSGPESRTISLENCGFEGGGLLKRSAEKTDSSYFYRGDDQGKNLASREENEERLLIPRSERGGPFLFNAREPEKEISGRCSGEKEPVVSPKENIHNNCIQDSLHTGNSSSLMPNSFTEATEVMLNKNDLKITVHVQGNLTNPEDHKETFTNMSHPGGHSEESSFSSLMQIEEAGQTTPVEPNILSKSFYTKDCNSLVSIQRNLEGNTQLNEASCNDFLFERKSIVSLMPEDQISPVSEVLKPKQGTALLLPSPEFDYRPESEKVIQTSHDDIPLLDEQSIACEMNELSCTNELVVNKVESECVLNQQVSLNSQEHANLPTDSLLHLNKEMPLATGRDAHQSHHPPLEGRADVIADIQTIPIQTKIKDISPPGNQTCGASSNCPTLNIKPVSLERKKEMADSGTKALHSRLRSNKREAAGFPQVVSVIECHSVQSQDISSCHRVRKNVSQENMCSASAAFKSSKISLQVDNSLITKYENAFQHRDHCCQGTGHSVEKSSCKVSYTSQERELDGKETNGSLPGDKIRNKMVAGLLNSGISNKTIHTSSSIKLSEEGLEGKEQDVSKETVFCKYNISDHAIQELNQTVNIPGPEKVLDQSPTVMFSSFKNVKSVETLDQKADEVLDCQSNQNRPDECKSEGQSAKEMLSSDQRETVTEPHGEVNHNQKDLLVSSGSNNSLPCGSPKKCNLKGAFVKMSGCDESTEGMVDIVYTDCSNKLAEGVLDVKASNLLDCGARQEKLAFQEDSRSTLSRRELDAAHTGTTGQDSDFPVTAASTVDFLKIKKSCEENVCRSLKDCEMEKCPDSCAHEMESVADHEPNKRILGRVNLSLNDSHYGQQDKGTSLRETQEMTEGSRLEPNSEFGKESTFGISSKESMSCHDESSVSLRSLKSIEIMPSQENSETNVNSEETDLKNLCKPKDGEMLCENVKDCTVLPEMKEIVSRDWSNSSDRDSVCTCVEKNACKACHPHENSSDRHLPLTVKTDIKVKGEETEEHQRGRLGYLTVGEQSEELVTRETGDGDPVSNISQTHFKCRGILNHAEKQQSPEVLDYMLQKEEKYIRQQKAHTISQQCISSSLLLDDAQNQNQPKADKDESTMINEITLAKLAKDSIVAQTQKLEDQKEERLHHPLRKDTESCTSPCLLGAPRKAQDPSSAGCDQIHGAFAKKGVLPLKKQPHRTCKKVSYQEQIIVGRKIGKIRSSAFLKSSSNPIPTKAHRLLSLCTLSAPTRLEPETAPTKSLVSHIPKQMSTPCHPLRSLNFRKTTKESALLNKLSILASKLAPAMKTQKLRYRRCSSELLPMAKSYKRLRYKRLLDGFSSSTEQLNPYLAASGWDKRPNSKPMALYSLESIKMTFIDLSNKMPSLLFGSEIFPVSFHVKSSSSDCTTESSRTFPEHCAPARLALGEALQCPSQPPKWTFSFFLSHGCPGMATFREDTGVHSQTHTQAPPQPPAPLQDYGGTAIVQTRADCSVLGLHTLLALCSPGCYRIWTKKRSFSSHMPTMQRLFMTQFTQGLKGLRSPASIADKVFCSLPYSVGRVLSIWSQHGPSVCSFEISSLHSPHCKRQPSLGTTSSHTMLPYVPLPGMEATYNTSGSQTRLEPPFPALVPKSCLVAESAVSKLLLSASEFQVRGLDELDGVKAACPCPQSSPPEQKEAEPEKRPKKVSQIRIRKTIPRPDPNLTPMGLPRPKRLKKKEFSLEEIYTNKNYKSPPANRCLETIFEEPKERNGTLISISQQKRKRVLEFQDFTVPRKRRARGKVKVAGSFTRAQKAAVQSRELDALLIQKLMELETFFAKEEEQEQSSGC
# UniProt O00411, 725-754: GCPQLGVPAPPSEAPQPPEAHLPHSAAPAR
# UniProt P30044: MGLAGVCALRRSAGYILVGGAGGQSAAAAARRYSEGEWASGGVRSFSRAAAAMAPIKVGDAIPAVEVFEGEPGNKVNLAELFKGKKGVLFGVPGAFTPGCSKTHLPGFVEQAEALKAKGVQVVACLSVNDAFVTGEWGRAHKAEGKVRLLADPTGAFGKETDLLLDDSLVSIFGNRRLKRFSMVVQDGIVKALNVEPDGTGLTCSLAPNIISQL
# UniProt Q99633: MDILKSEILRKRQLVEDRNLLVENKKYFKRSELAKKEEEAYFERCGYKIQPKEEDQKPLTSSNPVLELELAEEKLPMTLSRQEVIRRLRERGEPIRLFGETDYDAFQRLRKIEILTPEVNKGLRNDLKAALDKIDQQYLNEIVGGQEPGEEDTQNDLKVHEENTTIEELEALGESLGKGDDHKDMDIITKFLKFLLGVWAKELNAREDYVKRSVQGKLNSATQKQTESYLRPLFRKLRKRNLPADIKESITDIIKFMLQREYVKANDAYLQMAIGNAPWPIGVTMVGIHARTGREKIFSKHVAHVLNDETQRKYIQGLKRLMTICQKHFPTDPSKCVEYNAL
# UniProt O75170: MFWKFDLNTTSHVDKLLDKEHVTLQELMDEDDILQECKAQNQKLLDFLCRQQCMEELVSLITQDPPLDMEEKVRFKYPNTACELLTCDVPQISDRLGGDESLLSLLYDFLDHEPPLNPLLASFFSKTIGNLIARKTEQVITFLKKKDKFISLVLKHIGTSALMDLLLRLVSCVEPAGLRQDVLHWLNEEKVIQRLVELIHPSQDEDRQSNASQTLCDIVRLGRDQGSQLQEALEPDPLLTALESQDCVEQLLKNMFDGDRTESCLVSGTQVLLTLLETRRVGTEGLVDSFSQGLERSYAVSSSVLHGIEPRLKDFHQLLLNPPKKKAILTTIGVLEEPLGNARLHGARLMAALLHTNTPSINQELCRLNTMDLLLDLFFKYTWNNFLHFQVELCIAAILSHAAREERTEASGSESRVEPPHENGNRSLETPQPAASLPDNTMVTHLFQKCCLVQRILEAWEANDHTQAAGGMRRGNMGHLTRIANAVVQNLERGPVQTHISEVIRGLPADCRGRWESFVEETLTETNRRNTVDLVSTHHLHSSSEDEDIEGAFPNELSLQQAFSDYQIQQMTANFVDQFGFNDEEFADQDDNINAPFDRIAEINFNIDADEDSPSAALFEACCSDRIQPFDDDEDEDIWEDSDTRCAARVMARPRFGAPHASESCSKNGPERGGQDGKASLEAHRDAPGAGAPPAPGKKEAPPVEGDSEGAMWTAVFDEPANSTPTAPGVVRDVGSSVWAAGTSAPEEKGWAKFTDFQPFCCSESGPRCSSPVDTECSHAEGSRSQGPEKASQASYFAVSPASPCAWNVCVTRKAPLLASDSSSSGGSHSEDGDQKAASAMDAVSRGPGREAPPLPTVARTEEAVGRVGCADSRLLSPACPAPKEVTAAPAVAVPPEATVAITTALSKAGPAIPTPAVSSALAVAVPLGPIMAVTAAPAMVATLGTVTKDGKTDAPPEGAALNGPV
# UniProt Q5VV67: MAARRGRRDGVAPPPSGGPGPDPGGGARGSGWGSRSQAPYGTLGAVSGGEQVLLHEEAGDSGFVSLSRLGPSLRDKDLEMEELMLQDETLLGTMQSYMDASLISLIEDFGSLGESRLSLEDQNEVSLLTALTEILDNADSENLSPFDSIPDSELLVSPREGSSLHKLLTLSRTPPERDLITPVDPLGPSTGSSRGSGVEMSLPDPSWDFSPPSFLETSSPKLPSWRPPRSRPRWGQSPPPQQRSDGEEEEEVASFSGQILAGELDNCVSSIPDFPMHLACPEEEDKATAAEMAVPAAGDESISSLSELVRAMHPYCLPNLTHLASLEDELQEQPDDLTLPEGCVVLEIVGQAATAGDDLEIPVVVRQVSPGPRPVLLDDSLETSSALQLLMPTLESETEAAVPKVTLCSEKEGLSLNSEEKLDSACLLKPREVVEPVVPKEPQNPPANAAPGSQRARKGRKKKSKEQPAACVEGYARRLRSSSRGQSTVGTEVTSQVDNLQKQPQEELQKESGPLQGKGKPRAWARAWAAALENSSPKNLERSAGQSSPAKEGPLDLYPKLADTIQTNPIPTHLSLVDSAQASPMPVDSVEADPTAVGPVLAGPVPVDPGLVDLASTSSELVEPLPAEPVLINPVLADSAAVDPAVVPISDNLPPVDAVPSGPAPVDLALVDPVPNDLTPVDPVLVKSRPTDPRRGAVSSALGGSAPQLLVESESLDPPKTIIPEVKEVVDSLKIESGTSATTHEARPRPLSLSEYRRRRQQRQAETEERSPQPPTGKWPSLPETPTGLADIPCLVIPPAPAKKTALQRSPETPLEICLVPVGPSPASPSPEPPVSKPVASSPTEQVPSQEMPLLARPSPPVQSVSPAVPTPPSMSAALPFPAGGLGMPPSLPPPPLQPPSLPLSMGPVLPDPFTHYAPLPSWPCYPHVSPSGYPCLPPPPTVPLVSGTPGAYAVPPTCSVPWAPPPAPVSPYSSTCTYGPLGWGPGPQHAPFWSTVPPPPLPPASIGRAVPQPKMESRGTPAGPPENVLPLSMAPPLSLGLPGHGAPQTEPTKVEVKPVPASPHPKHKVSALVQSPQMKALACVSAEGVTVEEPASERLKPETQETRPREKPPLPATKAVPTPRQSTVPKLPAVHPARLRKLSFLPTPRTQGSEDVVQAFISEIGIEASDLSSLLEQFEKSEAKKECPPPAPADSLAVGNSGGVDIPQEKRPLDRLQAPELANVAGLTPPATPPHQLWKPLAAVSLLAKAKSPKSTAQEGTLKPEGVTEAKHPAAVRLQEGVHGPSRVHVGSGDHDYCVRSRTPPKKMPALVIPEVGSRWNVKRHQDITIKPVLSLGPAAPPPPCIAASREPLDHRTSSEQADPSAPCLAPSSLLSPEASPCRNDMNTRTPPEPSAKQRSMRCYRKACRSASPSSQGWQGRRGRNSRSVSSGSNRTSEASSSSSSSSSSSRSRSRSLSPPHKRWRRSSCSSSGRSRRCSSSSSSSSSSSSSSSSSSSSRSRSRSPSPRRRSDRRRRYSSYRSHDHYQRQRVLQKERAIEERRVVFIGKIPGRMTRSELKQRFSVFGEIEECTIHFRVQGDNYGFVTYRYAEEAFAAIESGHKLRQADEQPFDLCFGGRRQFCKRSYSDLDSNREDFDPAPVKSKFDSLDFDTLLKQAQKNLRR
# The list shows a part of the results. The data scatter; read single values as rough.
# What was measured:
# [1] = compound: ClCC(=O)N[C@@H]1CCCc2ccccc12; assay: log2 mean competition ratio of IA-DTB cysteine labelling (DMSO/compound) (log2 ratio); higher = stronger cysteine engagement by compound; settings: treatment time: 4 h, cell line lysate: HEK293T
# Description: (§1)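 IA-DTB competitive cysteine chemoproteomics in HEK293T RIPA lysate. Lysates were treated with compound 29 or 30 at 50 or 200 µM for 4 h, then IA-DTB (500 µM, 1 h), trypsin-digested, NeutrAvidin-enriched and analysed by diaPASEF. Competition ratio = intensity DMSO / intensity compound (n=4 treated, n=64 DMSO); binding: mean log2 CR ≥ 1 and p ≤ 0.05 plus QC filters. Target is the cysteine site.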
# [2] = compound: ClCC(=O)N[C@H]1CCCc2ccccc12; assay: as above; settings: treatment time: 4 h, cell line lysate: HEK293T
# Description: as §1
Target,log2 mean competition ratio ([1]; 50 µM),log2 mean competition ratio ([1]; 200 µM),log2 mean competition ratio ([2]; 50 µM),log2 mean competition ratio ([2]; 200 µM)
PPM1L C340 (UniProt Q5SGD2),0.12,0.208,-0.34,–
PRORP C367 (UniProt O15091),-0.0495,-0.01,0.156,-0.00736
PPP2R5A C359 (UniProt Q15172),0.347,0.332,0.0669,-0.12
PPP1R3D C291 (UniProt O95685),-0.11,-0.0797,0.171,0.277
PRMT9 C217 (UniProt Q6P2P2),0.0325,0.0489,-0.161,-0.0613
PRPF8 C772 (UniProt Q6P2Q9),-0.00577,0.256,0.0651,0.503
PRAF2 C28 (UniProt O60831),-0.0301,0.0594,0.0354,0.198
PPP2R5B C113 (UniProt Q15173),0.0224,-0.0434,-0.337,-0.0442
PRPF38A C116 (UniProt Q8NAV1),-0.00337,-0.123,-0.0415,-0.128
POLR2H C30 (UniProt P52434),-0.121,-0.171,-0.513,-0.303
POLR3D C316 (UniProt P05423),-0.0259,0.183,0.384,0.141
POLR2A C1430,0.324,0.584,0.357,-0.0817
PRR14L C1027 (UniProt Q5THK1),0.0777,-0.0812,–,-0.213
PRPF6 C339 (UniProt O94906),-0.0639,0.0226,-0.247,0.134
PPP1R9B C272 (UniProt Q96SB3),0.366,-0.477,0.00668,-0.249
POLRMT C726 (UniProt O00411),-0.00281,-0.291,0.81,-0.322
PRDX5 C100 (UniProt P30044),0.126,-0.561,0.0845,-0.263
PRPF18 C325 (UniProt Q99633),0.00426,-0.193,0.079,0.113
PPP6R2 C216 (UniProt O75170),-0.293,0.257,-0.0855,0.347
PRKCD C208 (UniProt Q05655),-0.0881,0.0207,-0.0793,-0.00616
PRDM16 C113,0.434,0.0474,0.571,0.106
PRKRA C54 (UniProt O75569),0.215,-0.121,0.798,-0.0429
PPRC1 C1084 (UniProt Q5VV67),-0.161,-0.565,-0.397,-0.443
PRKD1 C726 (UniProt Q15139),0.692,0.32,0.0177,0.275
PRPF4B C750 (UniProt Q13523),-0.0559,0.244,-0.539,-0.00556

# Complete entries from above. Values in the order: log2 mean competition ratio ([1]; 50 µM) | log2 mean competition ratio ([1]; 200 µM) | log2 mean competition ratio ([2]; 50 µM) | log2 mean competition ratio ([2]; 200 µM)
# POLR2H C30 (UniProt P52434) reads -0.121 | -0.171 | -0.513 | -0.303
# PRKRA C54 (UniProt O75569) reads 0.215 | -0.121 | 0.798 | -0.0429
